Measurements from patent publication US12378248B2 (The United States of America, as represented by the …, priority 2018, dated 2025).
At least one structure is not confirmed: it was looked up by name or label, or the drawing left a doubt.

Assays:
[1] = test system: off-target receptors (PDSP); test: Off-target interactions determined by the PDSP, whole screen; assay type: binding, human; conditions: no off-target interaction listed
[2] = test system: wild-type C57BL/6J mice; conditions: 3 mg/kg ip; marked with reference 30; cited from earlier work

Compound	Off-target, receptor (h, unless noted) [1]	ARs causing hypothermia [2]
OC[C@H]1O[C@@H](n2cnc3c(NC(C4CC4)C4CC4)ncnc32)[C@H](O)[C@@H]1O [Compound 8]	none	–
O[C@@H]1[C@H](O)[C@@H]2C[C@@H]2[C@H]1n1cnc2c(NC(C3CC3)C3CC3)nc(Cl)nc21 [Compound 7, reference compound]	–	A3AR >> A1AR^30
